One target from the supplement of paper PMC12067093, “Discovery and optimisation of a covalent ligand for TRIM25 and its application to targeted protein ubiquitination” (Chemical Science, 2025) can be followed below.

Amino acid sequences for entries named in this document (tags omitted). A change or cut given only in a name is not applied to a line headed by its entry.
UniProt Q16513: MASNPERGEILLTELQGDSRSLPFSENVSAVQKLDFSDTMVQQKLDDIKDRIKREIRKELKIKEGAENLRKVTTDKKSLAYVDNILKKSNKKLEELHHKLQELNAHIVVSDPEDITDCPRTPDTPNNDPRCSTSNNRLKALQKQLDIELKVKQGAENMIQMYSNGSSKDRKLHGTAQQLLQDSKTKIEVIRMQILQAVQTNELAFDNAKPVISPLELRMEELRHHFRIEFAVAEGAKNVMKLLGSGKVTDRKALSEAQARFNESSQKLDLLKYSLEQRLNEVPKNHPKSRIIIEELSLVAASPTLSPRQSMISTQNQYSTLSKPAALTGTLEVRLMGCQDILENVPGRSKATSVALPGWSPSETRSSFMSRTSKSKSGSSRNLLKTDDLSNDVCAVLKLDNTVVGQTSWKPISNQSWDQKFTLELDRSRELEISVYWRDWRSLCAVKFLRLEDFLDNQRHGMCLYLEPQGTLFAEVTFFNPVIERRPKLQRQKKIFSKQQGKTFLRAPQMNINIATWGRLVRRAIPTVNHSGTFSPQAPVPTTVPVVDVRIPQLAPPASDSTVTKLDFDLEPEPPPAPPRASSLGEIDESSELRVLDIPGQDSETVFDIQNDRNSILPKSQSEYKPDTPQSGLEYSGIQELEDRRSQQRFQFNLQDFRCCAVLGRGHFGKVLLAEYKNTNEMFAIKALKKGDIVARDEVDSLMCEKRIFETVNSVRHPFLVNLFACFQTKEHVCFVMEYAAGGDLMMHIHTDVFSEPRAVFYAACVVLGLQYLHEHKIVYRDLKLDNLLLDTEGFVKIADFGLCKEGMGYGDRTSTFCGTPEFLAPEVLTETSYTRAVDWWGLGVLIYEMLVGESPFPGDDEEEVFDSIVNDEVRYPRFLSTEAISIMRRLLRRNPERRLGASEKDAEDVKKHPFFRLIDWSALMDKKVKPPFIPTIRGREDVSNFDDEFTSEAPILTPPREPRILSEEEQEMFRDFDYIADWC

Compound in this test: CC1Cc2ccccc2N1C(=O)C1CCCN(C1)C(=O)CCl (mixture of isomers) [TRIM25 ligand 11 (diastereomer mixture)]
The test can be described thus: probe-labelled cysteine peptide fold change vs DMSO (competition) (log2 fold change); higher = less target engagement (more negative = stronger competition). Particulars: THP-1, incubation time: 4 h.

The list shows a part of the results.
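Note: competitive chemoproteomic profiling in live THP-1 cells with an iodoacetamide desthiobiotin (IA-DTB) probe, comparing probe-labelled peptide intensities in compound-treated cells against DMSO-treated controls.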

Take “PKN2_Q16513_118_LQELNAHIVVSDPEDITDCPR (UniProt Q16513)”: the “probe-labelled cysteine peptide fold change” value is, setting by setting: (10 µM) 0.231; (50 µM) -0.221.
